Experimental data reported in PubChem BioAssay AID1347431 (National Center for Advancing Translational Sciences (NCATS), 2020).
Out of some 1,200 compounds screened, fewer than 10 were called active. Calls follow the shape of the dose curve; as a rule, active = well fitted curve in the direction sought with a large enough effect; inconclusive = small, poorly fitted or top-dose-only effect, or another doubt; inactive = no such curve, though single readings can be large or run the other way. Some of the results follow.

experiment: Confirmatory qHTS assay for inhibitors of Activation Induced Cytidine Deaminase (AID): UDG signals; settings: UDG coupled enzyme activity counter-screen; at 115 µM (top of the series) unless noted; also: 0% is about no effect
Outline: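 Fluorescence at 560 nm excitation/665 nm emission reports UDG activity, read after NaOH quench of a 4 h room-temperature reaction of DJC20/DJC23 substrates with AID (1 uM, 4/3x) and UDG (2 U/mL, 4/3x); compounds at 7.32 nM - 114 uM final, preincubated 10 min.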

| Structure (SMILES) | activity change, negative = inhibition |
| --- | --- |
| CC(=O)O[C@H]1C[C@@H]2CC[C@@H]3[C@H](CC[C@@]4(C)[C@H]3C[C@H]([N+]3(C)CCCCC3)[C@@H]4OC(C)=O)[C@@]2(C)C[C@@H]1[N+]1(C)CCCCC1 | inactive: 4.17% |
| CC(=O)N1CCc2c(sc3c2c(=O)n(Cc2ccccc2)c(=O)n3Cc2cccc(Cl)c2)C1 | inactive: -4.28% |
| CCN(CC)C(=O)C1CCCN(c2ncnc3c2c(-c2ccccc2)cn3-c2cccc(C)c2)C1 (stereo not given) | inactive: -4.77% |
| CCC(C)NC(=O)c1cn(CC)c2ccc(S(=O)(=O)N3CCc4ccccc4C3)cc2c1=O (stereo not given) | inactive: -9.33% |
| Cc1ccc(CNC(=O)CSCc2nc(-c3cccc(C)c3)oc2C)cc1 | inactive: -5.25% |
| Cc1cccc(NC(=O)COc2ccc3oc4c(c3c2)CCCC4)c1 | inactive: -8.46% |
| COc1ccccc1N1CCN(C(=O)c2cc3c(-c4ccccc4F)nn(C)c3s2)CC1 | inactive: -3.23% |
| CCOc1cccc(C(=O)N(Cc2ccc(F)cc2)Cc2ccco2)c1 | inactive: -7.98% |
| COc1cccc(-c2nc(CS(=O)CC(=O)N3CCN(c4cccc(C(F)(F)F)c4)CC3)c(C)o2)c1 (stereo not given) | inactive: -5.34% |
| CCc1ccc(CNC(=O)CSCc2cnn(-c3ccccc3)c2-n2cccc2)cc1 | inactive: -10.6% |
| Cc1ccccc1Cc1c(C)nc2nc(SCC(=O)NC(C)c3ccccc3)nn2c1C (stereo not given) | inactive: -3.9% |
| O=S(=O)(Nc1nc2n(n1)C(c1ccccc1)C=C(c1ccc(Cl)cc1)N2)c1ccccc1 (stereo not given) | inactive: 9.34% |
| CCc1ccc(/C=C2/SC(=S)NC2=O)cc1 | inactive: -6.97% |
| CC(Sc1nc(-c2ccccc2)c(C#N)c(=O)[nH]1)C(=O)Nc1ccc(F)cc1 (stereo not given) | inactive: 4.99% |
| Cc1ccc(CSc2nc(=O)c3c(C)cc(C)nc3n2C2CC2)cc1 | inactive: -2.33% |
| COc1ccc(C(=O)c2cn(Cc3ccccc3F)c3ccc(F)cc3c2=O)cc1 | inactive: -4.88% |
| Cc1ccc(CNC(=O)c2cnn3c(C)c(Cc4c(F)cccc4Cl)c(C)nc23)cc1 | inactive: -4.23% |
| CCN(CC)CCOC(=O)c1ccc(NC(=O)CSc2cc(=O)n(CC)c3ccccc23)cc1 | inactive: 4.77% |
| Cc1ccccc1Cn1c(SCc2ccc(C(=O)NC3CCCC3)cc2)nc2ccncc21 | inactive: 12.1% |
| Cc1ccc(-n2cnc3cc(C(=O)NCc4ccccc4Cl)ccc32)c(C)c1 | inactive: 3.32% |
| Cc1nc2nc(SCC(=O)N(Cc3ccccc3)C(C)C)nn2c(C)c1Cc1ccccc1Cl | inactive: -10.1% |
| CCCCOc1ccc(Cn2c(=O)sc3ccccc32)cc1 | inactive: 2.94% |
| CCCN(CCC)CC(O)Cn1cc(/C=C/C(=O)c2ccc(OCC)cc2)c2ccccc21 (stereo not given) | inactive: -8.01% |
| CCCCCn1c(=N)n(CC(O)COc2cccc(C)c2)c2ccccc21 (stereo not given) | inactive: -10.6% |
| COc1ccc2c(c1)c(=O)c(C(=O)c1ccc(C)cc1)cn2Cc1ccccc1F | inactive: -6.28% |
| COC(=O)c1ccc(Cl)cc1NC(=O)Nc1nnc(N(C)Cc2ccccc2)s1 | inactive: 4.78% |
| COc1ccc(OC)c(-c2noc(N3CCN(c4cc(Cl)ccc4C)CC3)n2)c1 | inactive: -10.3% |

Entries above that have a thiophene ring, fused or not (2):

| Structure (SMILES) | activity change, negative = inhibition |
| --- | --- |
| CC(=O)N1CCc2c(sc3c2c(=O)n(Cc2ccccc2)c(=O)n3Cc2cccc(Cl)c2)C1 | inactive: -4.28% |
| COc1ccccc1N1CCN(C(=O)c2cc3c(-c4ccccc4F)nn(C)c3s2)CC1 | inactive: -3.23% |

The listing continues:

| Structure (SMILES) | activity change, negative = inhibition |
| --- | --- |
| CCc1ccc(CNC(=O)C(CC)n2nc(C)c3c(C)n(-c4ccccc4)nc3c2=O)cc1 (stereo not given) | inactive: -10.4% |
| CCOC(=O)C1CCCN(C(=O)c2cc3c(Cl)nc4ccccc4c3s2)C1 (stereo not given) | inactive: 8.83% |
| Fc1ccc(F)c(Nc2c3c(nc4ccc(Cl)cc24)CCC3)c1 | inactive: 2.19% |
| Cc1ccccc1Cn1c(=O)n(CC2CCC(C(=O)N3CCC(C)CC3)CC2)c(=O)c2sccc21 (stereo not given) | inactive: -12.1% |
| O=C(c1ccccc1Cl)N1CCCC(c2nc3c(nnn3Cc3ccc(F)cc3F)c(=O)[nH]2)C1 (stereo not given) | inactive: 0.732% |
| COc1ccc(-n2c(Cc3ccccc3)nnc2SCc2nc(-c3ccccc3C)no2)cc1 | inactive: -23.7% |
| Cc1c(C(=O)N(C)c2ccccc2)sc2nc(-c3ccc(F)cc3)cn12 | inactive: -7.95% |
| COc1ccc(N2CCN(C(=O)c3cn(C4CCCCC4)c(=O)c4c3c3ccccc3n4C)CC2)cc1 | inactive: -3.58% |
| CCn1c(CN2CCCCC2)nc2cc(NC(=O)COc3cc(C)ccc3C(C)C)ccc21 | inactive: -16.7% |
| Cc1ccc(C)c(N2CCN(C(=O)c3cccn3-c3nnc(N4CCCCC4)s3)CC2)c1 | inactive: -5.82% |
| Cc1ccc(C)c(N2CCN(CCCNC(=O)c3ccc4nc(N5CCCCC5)sc4c3)CC2)c1 | inactive: -9.97% |
| O=C(CSc1nc2ccccc2nc1Cc1ccccc1)N1CCCCC1 | inactive: -7% |
| Cn1nc(-c2ccccc2F)c2cc(C(=O)N3CCN(c4ccc(F)cc4)CC3)sc21 | inactive: -17% |
| Cc1ccc(C)c(N2CCN(C(=O)Cn3nc(Cc4cccnc4)c4ccccc4c3=O)CC2)c1 | inactive: -2.12% |
| COc1ccc(C(=O)c2cn(CC(=O)Nc3ccc4c(c3)OCCO4)c3ccc(OC)cc3c2=O)cc1 | inactive: 0.0253% |
| CCOc1ccc(-n2c(CCC(=O)O)ccc2-c2ccc(Br)cc2)cc1 | inactive: 12.7% |
| CCC(C(=O)N1CCN(c2ccccc2)CC1)n1nc(C)n2c(cc3sccc32)c1=O (stereo not given) | inactive: -0.471% |
| CCCOc1ccc(-c2nn(-c3ccccc3)cc2C2NC(=O)NC(C)=C2C(=O)OC(C)C)cc1 (stereo not given) | inactive: -11.6% |
| C=Cc1ccc(Cn2nc(-c3ccc(C)c(S(=O)(=O)N(CC)CC)c3)ccc2=O)cc1 | inactive: -6.02% |
| Cn1nc(-c2ccc(C(=O)Nc3ccc(F)cc3)cc2)c2ccccc2c1=O | inactive: 2.76% |
| O=C(O)CSc1c2c(nc3cc(C(=O)Nc4ccc(F)c(Cl)c4)ccc13)CCC2 | inactive: 9.97% |
| COc1cc(Cl)c(C)cc1NC(=O)c1ccc2c(SCC(=O)O)c3c(nc2c1)CCCC3 | inactive: 2.41% |
| CCCOc1c(Cl)cc(C(=O)N(Cc2cccc(OC)c2)C2CCS(=O)(=O)C2)cc1Cl (stereo not given) | inactive: -4.73% |
| O=C(NCc1ccccc1Cl)c1ccc2c(O)c(S(=O)(=O)c3ccccc3)c(=O)[nH]c2c1 | inactive: 5.82% |
| Cc1ccccc1Cn1c(CN2CCN(c3cc(Cl)ccc3C)CC2)nc2c1c(=O)[nH]c(=O)n2C | inactive: -2.68% |
| CCCN1CCN(CCCNC(=O)c2ccc3c(c2)sc2nc(-c4ccc(OCC)cc4)cn23)CC1 | inactive: -1.77% |
| Cc1ccc2c(c1)-c1c(cnn1CC(=O)N1CCN(c3cc(C)ccc3C)CC1)CO2 | inactive: -3.23% |

Another view of part of the listing above.
Structure (SMILES) | activity change, negative = inhibition
Cc1ccc(CNC(=O)CSCc2nc(-c3cccc(C)c3)oc2C)cc1 | inactive: -5.25%
CCOc1cccc(C(=O)N(Cc2ccc(F)cc2)Cc2ccco2)c1 | inactive: -7.98%
COc1cccc(-c2nc(CS(=O)CC(=O)N3CCN(c4cccc(C(F)(F)F)c4)CC3)c(C)o2)c1 (stereo not given) | inactive: -5.34%
CCCCCn1c(=N)n(CC(O)COc2cccc(C)c2)c2ccccc21 (stereo not given) | inactive: -10.6%
O=C(O)CSc1c2c(nc3cc(C(=O)Nc4ccc(F)c(Cl)c4)ccc13)CCC2 | inactive: 9.97%

(continued)

| Structure (SMILES) | activity change, negative = inhibition |
| --- | --- |
| Cc1ccc(-c2n[nH]c3c2C(c2ccccc2Cl)N(c2ccc(C(=O)O)cc2)C3=O)cc1 (stereo not given) | inactive: 3.17% |
| COc1ccc(OC)c(NC(=O)N2CC(C)Oc3ccc(C)cc32)c1 (stereo not given) | inactive: 0.232% |
| Cc1ccc(OCC(=O)N(Cc2ccc(Cl)cc2)CC2CCCO2)cc1C (stereo not given) | inactive: -3.71% |
| Cc1ccc(C)c(CNC(=O)c2cnc3sc(N4CCCC4)nn3c2=O)c1 | inactive: 6.28% |
| CCOC(=O)C1=C(CN(CC)Cc2ccccc2)NC(=O)NC1c1ccc(OC(C)C)cc1 (stereo not given) | inactive: -13.6% |
| COc1ccc(CCN2CCC(CNC(=O)c3cnn(-c4ccccc4)c3C3CCN(C(=O)OC(C)(C)C)CC3)CC2)cc1 | inactive: -5.77% |
| Cc1ccc(Cc2nc3ccccc3nc2SCC(=O)N2CCCCC2C)cc1 (stereo not given) | inactive: -3.62% |
| Cc1cccn2c(=O)c3cc(C(=O)N(Cc4ccccc4)C(C)C)sc3nc12 | inactive: 3.34% |
| CCOc1ccccc1NC(=O)CSC1=Nc2ccccc2C2=NC(CC(=O)NC3CCCCC3)C(=O)N12 (stereo not given) | inactive: 7.19% |
| CCOc1ccc(NC(=O)CN(C)S(=O)(=O)c2ccc3c(c2)c(=O)n(C)c(=O)n3C)cc1 | inactive: 9.06% |
| CC(C)(C)OC(=O)N1CCC(c2c(C(=O)NCCN3CCOCC3)cnn2-c2ccccc2)CC1 | inactive: -16.3% |
| COc1ccc2c(C)cc(SCC(=O)Nc3nsc(-c4ccc(C(C)(C)C)cc4)n3)nc2c1 | inactive: -8.69% |
| CCn1cc2nc(SCc3cccc(C(F)(F)F)c3)n(CCc3ccccc3)c(=O)c2n1 | inactive: -6.4% |
| Fc1ccc(CNc2ncnc3onc(-c4ccc(F)cc4)c23)cc1 | inactive: 1.53% |
| CCCN(CCC)CC(O)Cn1cc(/C=C/C(=O)c2ccc(C)cc2)c2ccccc21 (stereo not given) | inactive: -5.18% |
| CCC(Oc1ccccc1F)C(=O)N1CCC(c2nc3ccccc3s2)CC1 (stereo not given) | inactive: -1.92% |
| COc1ccccc1Cn1cc(C(=O)c2ccc(C)cc2)c(=O)c2cc(C)ccc21 | inactive: -1.74% |
| COc1ccc(N2CCN(Cc3cccn3-c3nnc(N4CCN(C5CCCCC5)CC4)s3)CC2)cc1 | inactive: -7.16% |
| N#CC1=C2SCN(C3CCCCC3)CN2C(=O)CC1c1c(F)cccc1Cl (stereo not given) | inactive: -4.69% |
| CCOC(=O)c1ccc(-c2ccc(/C=C(\C#N)c3nc4ccc(C)cc4[nH]3)o2)cc1 | inactive: -7.54% |
| CCCN1CCN(c2cc3c(cc2F)c(=O)c(S(=O)(=O)c2ccc(CC)cc2)cn3CC)CC1 | inactive: 4.81% |
| Cc1ccc(-c2ccc(=O)n(CC(=O)Nc3ccc(C)cc3Cl)n2)cc1 | inactive: 3.58% |
| CCOC(=O)c1ccc(-n2c(CCC(=O)O)ccc2-c2ccc(Br)cc2)cc1 | inactive: 9.47% |
| COc1ccc(CC(=O)Nc2sc3c(c2C(=O)Nc2cccc(Cl)c2)CCCCC3)cc1 | inactive: -4.6% |
| COCCNC(=O)c1ccc2c(c1)N(Cc1ccc(C(F)(F)F)cc1)C(=O)c1ccccc1S2 | inactive: 2.3% |
| Cc1cccc(OCCCSc2nc(-c3ccc(C(C)(C)C)cc3)nc3cc(=O)[nH]n23)c1C | inactive: -7.96% |
